These results are taken from paper PMC11121064 (International Journal of Molecular Sciences, 2024).

In the data set the test system is melanoma A375 tumor cell line. Put plainly: MTT reduction assay, A375 melanoma cells. Format: cell-based, human. As to conditions: for times more toxic against the A375 cancer cell line than the normal BJ line: A375 vs BJ, 72 h; for Selectivity index SI = IC50 (BJ)/ IC50 (A375): BJ vs A375, 72 h. On the procedure: The cytotoxic activity was measured against the melanoma A375 tumor cell line (ECACC) and the human BJ fibroblast cell line (ATCC) using an MTT reduction assay. The selectivity index (SI) was calculated using the following formula: SI = IC50 (BJ)/ IC50 (A375).
The A375 cell line was purchased from the European Collection of Authenticated Cell Cultures (ECACC, Salisbury, UK) and the BJ human fibroblast cell line from the American Type Culture Collection (ATCC, Manassas, VA, USA). All the cell lines were grown as a monolayer in standard conditions: 37 °C, 100% humidity, under an atmosphere of 5% CO2. […] The BJ cell line was grown in EMEM with EBSS, NEAA and sodium pyruvate with L-Glutamine supplemented, 10% fetal bovine serum and 50 IU/mL penicillin/streptomycin.
Next, the cells were seeded in 96-well plates at a density of 5000 cells per well and incubated overnight to reach the logarithmic growth phase. […] After 72 h, 10 µL of MTT solution (5 g/L) was added into each well and incubated for an additional four hours. Subsequently, the medium was removed, and 100 µL of dimethyl sulfoxide (DMSO) was added into each well. The absorbance was then measured at 570 nm using a SPECTROstar Nano microplate reader (BMG Biotech Inc., Cary, NC, USA)/Tecan Spark 10M. The mean value from three independent BJ and A375 cell cultures was taken to calculate the cell viability, expressed as a percentage of the control values, i.e., untreated cells assumed as 100%.
Background: Formazan colour is commonly taken as a measure of viable cells.

Molecules are shown by their SMILES.

For the compound `Cc1ncc([N+](=O)[O-])n1CCO.Cc1ncc([N+](=O)[O-])n1CCO.O=[N+]([O-])[O-].[Ag+]` [[(MTZ)2AgNO3]], the “times more toxic against the A375 cancer cell line than the normal BJ line” value was determined as 15.

Take `Clc1ccc(COC(Cn2ccnc2)c2ccc(Cl)cc2Cl)c(Cl)c1.Clc1ccc(COC(Cn2ccnc2)c2ccc(Cl)cc2Cl)c(Cl)c1.[Ag+].[O-][Cl+3]([O-])([O-])[O-]` (stereo not shown) [[Ag(MCZ)2ClO4]]: the “Selectivity index SI = IC50 (BJ)/ IC50 (A375)” value is on record as 1.45. For the compound `Clc1ccc(COC(Cn2ccnc2)c2ccc(Cl)cc2Cl)c(Cl)c1.Clc1ccc(COC(Cn2ccnc2)c2ccc(Cl)cc2Cl)c(Cl)c1.O=[N+]([O-])[O-].[Ag+]` (stereo not shown) [[Ag(MCZ)2NO3]], the “times more toxic against the A375 cancer cell line than the normal BJ line” value is “eight-fold”. Consider `Clc1ccc(COC(Cn2ccnc2)c2ccc(Cl)cc2Cl)c(Cl)c1.Clc1ccc(COC(Cn2ccnc2)c2ccc(Cl)cc2Cl)c(Cl)c1.[Ag+].[F][Sb-]([F])([F])([F])([F])[F]` (stereo not shown) [[Ag(MCZ)2SbF6]], for which the “Selectivity index SI = IC50 (BJ)/ IC50 (A375)” value is 0.86.
